Laboratory results from US20230071609A1.
These are yes or no findings as the source states them, for the method shown. Some results given as binding are weak or reduced against the parent protein; the word gives no strength.

What was measured:
[1] = target: T1, APOL1-G1 (S342G, I384M) (human) (UniProt O14791); experiment: flow cytometry, live iAPOL1-G1 CHO cells; antibody named in paragraph 192
T1 sequence: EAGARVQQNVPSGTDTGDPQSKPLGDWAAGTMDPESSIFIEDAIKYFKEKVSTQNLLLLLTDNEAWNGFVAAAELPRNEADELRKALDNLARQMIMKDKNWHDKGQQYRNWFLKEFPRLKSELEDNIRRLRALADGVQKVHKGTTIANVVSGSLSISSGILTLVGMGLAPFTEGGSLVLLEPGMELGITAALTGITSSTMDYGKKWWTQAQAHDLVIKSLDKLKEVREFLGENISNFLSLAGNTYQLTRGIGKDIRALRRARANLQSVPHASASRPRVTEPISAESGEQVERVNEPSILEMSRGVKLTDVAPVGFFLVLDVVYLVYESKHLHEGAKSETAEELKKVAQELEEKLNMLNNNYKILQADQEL

[2] = target: T1, APOL1-G1 (S342G, I384M) (human); experiment: western blot of transfected COS lysates
[3] = target: APOL1-G2 (deletion of N388 and Y389) (human) (UniProt O14791); experiment: western blot of transfected COS lysates
[4] = target: T1, APOL1-G1 (S342G, I384M) (human); experiment: western blot of transfected COS lysates, 2 µg/ml
[5] = target: APOL1-G2 (deletion of N388 and Y389) (human) (UniProt O14791); experiment: western blot of transfected COS lysates, 2 µg/ml
[6] = target: T1, APOL1-G1 (S342G, I384M) (human); experiment: western blot of CHO lysates, 2.5 µg/ml
[7] = target: APOL1-G2 (deletion of N388 and Y389) (human) (UniProt O14791); experiment: western blot of CHO lysates, 2.5 µg/ml
[8] = target: T2, gD-PFD-MAD-GPI (construct c) (human) (UniProt O14791); experiment: flow cytometry, live CHO cells expressing the construct, 5 µg/ml
T2 sequence (chain, C-terminal GPI anchor): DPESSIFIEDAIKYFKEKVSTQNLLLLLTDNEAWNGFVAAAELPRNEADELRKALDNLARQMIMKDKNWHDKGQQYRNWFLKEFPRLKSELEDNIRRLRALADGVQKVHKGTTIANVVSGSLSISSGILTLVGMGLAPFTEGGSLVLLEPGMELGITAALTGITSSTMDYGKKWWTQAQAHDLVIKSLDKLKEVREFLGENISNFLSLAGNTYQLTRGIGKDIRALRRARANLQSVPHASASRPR

[9] = target: T3, gD-MAD-SRA-ID-GPI (construct d) (human) (UniProt O14791); experiment: as above
T3 sequence (chain, C-terminal GPI anchor): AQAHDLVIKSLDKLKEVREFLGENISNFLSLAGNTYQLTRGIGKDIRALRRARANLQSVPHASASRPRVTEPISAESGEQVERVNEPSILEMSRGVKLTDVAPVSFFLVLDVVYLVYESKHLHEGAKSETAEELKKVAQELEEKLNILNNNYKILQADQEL

B1: antibody 4.11H11 (antibody, V domains shown)
VH: EVQVQQSGPELVKPGASMKISCKASGYSFIVYTMNWVKQSHGKNLEWIGLINPYNGGTIYNRKFKGKATLTVDKSSSTAYLELLSLTSEDSAVYYCARGALYRYEGAMDYWGQGTSVIVSS
VL: QIVLSQFPAILSASPGEKVTMTCRASSSVIYVHWYQQKPGSSPKPWIYATSNLASGVPARFSGSGSGTSHSLTISRLEAEDTATYYCQQWSSNPLTFGAGTKLEIKR
**Q.** B1 was tested. Which binding [1] did it give?
**A.** Its binding is “binds”.

B2: rabbit monoclonal antibody 5.17D12 (antibody, V domains shown)
VH: QSLEESGGDLVKPGASLTLTCTASGFSFSSNYYMCWVRQAPGKGLEWIACVYVGSGGSTYYASWAKGRFTFSKTSSTTWTLQMTSLTAADTATYFCARDLSYAGDLWGPGTLVTVSS
VL: DPVMTQTPASVSEPVGGTVTINCQASESISSYLAWYQQKPGQPPKLLIYGASNLASGVPSRFKGSGSGTEYTLTISDLECDDAATYYCQSAYYSNSGGHAFGGGTEVVVKG
**Q.** For B2, which binding [2] is on record?
**A.** The binding was “binds”.

**Q.** What about the binding [3] of the same binder?
**A.** The binding was “binds”.

B3: antibody 4.17A5 (antibody, V domains shown)
VH: QVQLQQSGPELLKPGASVKISCKGSGYAFSNSWINWVKLRPGQGLEWIGRIYPGDGDTKYNGKFKGKATLTADKSSSTAHMQLRSLTSVDSAVYFCARFPFGKYEGPGAMDYWGQGTSVTVSS
VL: DIQMTQTTSSLSASLGDRVTISCRASQDISSYLNWYQQKPDGTIKLLIYYTSRLHSGVPSRFSGSGSGTDFSLTISNLEQEDIATYFCQQGNTLPYTFGGGTKLEIKR
**Q.** With B3 as the binder, how does the binding [4] read?
**A.** Its binding is “binds”.

**Q.** What about the binding [5] of the same binder?
**A.** Its binding is “binds”.

B4: antibody 3.7D6 (antibody, V domains shown)
VH: QIQLVQSGPDLKKPGETVKISCRTSGYAFTNYGVNWVKQAPGKGLKWMGWINTNTGQTTYAEEFRGRFAISLETSASTAFLTISNLKNEDSATYFCARLIYDGDYISSDFWGQGTTLTVSS
VL: DIQMTQSPDSLSASVGETVTITCGASENIYGALNWYQRKQGKSPQLLIYGATNLADGMSSRFSGSRSGRQYSLKISSLHPDDVATYYCQNALSMPYTFGGGTKLEIKR
**Q.** How did the binding [6] turn out when B4 was run?
**A.** Its binding is “binds”.

**Q.** And the binding [7]?
**A.** The binding was “binds”.

**Q.** And the binding [4]?
**A.** The binding was “binds”.

**Q.** And the binding [5]?
**A.** The binding was “binds”.

**Q.** And the binding [8]?
**A.** The binding was “binds”.

B5: antibody 3.6D12 (antibody, V domains shown)
VH: EVMLVESGGGLVRPGGSLKLSCTASGFTFSRCAMSWVRQTPEKRLEWVSAISRDSTYTYYSDSVKGRFTVSRDNAKNTLYLQMSSLRSEDTAMYYCARQIDDYYVDALDYWGQGTSVTVSS
VL: DVQITQSPSYLAASPGETITINCRASKIISKYLAWYQEKPGKTIKLLIYSGFTLQSGIPSRFSGSGSGTDFTLTISSLEPEDFAMYYCQQHNEYPLTFGAGTKLEIKR
**Q.** With B5 as the binder, how does the binding [4] read?
**A.** Its binding is “binds”.

**Q.** And the binding [5]?
**A.** Its binding is “binds”.

B6: antibody 3.3A8 (antibody, V domains shown)
VH: QVQFQQSGAELVRPGASVKVTCKALGYTFSNYEIHWVRQPPVHGLEWIGAIHPGNGVTAYNQMFKGRATLAADKSSSTAYMELSSLTSEDSAVYYCTENFDYWGQGTALTVSS
VL: DVVVTQTPLSLPVSFGDQVSISCRSSQSLTNSYGITYLSWFLLKPGQSPQLLIYEISNRFSGVPDRFSGSGSGTDFTLKISTIKPEDLGVYFCLQGTHQPFTFGAGTKLEIKR
**Q.** B6 was tested. Which binding [9] did it give?
**A.** The binding was “binds”.

B7: antibody 3.1C1 (antibody, V domains shown)
VH: QVQLQQSGPELVKPGASVRISCKASGYTFTNYFIHWVKQRPGQGLEWIGWINPGNLNTKYTEEFKGKATLTADKSSSTAYIQLNSLTSEDSAVYFCVNGNPFVYWGQGTLVTVSA
VL: DIVMTQSPSSLTVIAGEKVTLNCKSSQSLLNSGNQKKYLTWLQQKPGQPPKLLIYWTSTRDSGVPDRFTGSGSGTDFTLTISSVQAEDLAVYYCQNDYSYPLTFGAGTKLEIKR
**Q.** Which binding [9] does the source give for B7 here?
**A.** Its binding is “binds”.
